# Data as given in the supplement of paper PMC6411743.
# The chains behind the UniProt entries cited, without tags or fusion partners. Where a name states a change or a piece, a line headed by the entry shows the natural chain unless it says otherwise.
# UniProt Q9Y4L1: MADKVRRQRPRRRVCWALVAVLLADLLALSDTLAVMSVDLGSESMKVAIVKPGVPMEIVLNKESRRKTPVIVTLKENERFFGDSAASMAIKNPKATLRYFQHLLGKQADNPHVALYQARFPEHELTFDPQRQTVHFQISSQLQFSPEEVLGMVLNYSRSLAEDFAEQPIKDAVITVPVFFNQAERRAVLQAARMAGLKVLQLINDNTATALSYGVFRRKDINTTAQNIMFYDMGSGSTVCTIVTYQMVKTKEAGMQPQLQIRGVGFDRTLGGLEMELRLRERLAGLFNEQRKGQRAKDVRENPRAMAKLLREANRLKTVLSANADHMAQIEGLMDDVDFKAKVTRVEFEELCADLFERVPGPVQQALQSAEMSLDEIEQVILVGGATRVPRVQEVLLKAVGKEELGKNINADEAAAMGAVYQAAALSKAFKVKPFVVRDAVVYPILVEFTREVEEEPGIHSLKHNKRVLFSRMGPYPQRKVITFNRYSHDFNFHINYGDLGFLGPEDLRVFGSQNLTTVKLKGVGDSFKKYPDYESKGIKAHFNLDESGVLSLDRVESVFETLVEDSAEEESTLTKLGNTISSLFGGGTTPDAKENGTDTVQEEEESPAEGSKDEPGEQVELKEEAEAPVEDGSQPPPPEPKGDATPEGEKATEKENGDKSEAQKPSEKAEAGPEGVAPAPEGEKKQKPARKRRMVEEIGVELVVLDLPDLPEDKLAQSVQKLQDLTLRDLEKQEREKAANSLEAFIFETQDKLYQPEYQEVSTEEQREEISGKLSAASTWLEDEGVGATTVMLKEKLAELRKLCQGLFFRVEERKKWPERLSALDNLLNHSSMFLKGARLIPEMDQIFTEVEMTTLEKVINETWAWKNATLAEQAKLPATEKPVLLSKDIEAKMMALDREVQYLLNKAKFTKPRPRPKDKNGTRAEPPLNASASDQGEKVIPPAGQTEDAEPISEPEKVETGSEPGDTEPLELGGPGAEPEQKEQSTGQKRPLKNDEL
# UniProt Q9Y3A6: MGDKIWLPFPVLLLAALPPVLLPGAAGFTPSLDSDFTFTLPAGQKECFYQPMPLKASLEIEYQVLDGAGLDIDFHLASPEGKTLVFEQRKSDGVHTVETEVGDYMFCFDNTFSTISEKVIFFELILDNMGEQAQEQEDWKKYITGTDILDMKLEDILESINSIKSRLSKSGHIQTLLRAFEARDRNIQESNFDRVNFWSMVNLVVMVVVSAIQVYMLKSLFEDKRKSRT
# UniProt Q9Y2B0: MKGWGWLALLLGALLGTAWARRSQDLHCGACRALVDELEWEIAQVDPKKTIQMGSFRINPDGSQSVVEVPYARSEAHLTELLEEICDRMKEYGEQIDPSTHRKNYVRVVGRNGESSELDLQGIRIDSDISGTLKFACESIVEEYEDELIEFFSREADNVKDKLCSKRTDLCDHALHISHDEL
# UniProt Q9Y5Y2: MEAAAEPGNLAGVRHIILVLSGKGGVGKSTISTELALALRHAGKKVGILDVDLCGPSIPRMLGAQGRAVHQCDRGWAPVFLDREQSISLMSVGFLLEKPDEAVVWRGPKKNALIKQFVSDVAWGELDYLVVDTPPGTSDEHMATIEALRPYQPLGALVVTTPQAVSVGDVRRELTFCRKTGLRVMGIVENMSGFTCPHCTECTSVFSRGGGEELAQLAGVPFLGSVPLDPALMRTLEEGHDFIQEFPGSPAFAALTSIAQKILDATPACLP
# UniProt Q9Y6D5: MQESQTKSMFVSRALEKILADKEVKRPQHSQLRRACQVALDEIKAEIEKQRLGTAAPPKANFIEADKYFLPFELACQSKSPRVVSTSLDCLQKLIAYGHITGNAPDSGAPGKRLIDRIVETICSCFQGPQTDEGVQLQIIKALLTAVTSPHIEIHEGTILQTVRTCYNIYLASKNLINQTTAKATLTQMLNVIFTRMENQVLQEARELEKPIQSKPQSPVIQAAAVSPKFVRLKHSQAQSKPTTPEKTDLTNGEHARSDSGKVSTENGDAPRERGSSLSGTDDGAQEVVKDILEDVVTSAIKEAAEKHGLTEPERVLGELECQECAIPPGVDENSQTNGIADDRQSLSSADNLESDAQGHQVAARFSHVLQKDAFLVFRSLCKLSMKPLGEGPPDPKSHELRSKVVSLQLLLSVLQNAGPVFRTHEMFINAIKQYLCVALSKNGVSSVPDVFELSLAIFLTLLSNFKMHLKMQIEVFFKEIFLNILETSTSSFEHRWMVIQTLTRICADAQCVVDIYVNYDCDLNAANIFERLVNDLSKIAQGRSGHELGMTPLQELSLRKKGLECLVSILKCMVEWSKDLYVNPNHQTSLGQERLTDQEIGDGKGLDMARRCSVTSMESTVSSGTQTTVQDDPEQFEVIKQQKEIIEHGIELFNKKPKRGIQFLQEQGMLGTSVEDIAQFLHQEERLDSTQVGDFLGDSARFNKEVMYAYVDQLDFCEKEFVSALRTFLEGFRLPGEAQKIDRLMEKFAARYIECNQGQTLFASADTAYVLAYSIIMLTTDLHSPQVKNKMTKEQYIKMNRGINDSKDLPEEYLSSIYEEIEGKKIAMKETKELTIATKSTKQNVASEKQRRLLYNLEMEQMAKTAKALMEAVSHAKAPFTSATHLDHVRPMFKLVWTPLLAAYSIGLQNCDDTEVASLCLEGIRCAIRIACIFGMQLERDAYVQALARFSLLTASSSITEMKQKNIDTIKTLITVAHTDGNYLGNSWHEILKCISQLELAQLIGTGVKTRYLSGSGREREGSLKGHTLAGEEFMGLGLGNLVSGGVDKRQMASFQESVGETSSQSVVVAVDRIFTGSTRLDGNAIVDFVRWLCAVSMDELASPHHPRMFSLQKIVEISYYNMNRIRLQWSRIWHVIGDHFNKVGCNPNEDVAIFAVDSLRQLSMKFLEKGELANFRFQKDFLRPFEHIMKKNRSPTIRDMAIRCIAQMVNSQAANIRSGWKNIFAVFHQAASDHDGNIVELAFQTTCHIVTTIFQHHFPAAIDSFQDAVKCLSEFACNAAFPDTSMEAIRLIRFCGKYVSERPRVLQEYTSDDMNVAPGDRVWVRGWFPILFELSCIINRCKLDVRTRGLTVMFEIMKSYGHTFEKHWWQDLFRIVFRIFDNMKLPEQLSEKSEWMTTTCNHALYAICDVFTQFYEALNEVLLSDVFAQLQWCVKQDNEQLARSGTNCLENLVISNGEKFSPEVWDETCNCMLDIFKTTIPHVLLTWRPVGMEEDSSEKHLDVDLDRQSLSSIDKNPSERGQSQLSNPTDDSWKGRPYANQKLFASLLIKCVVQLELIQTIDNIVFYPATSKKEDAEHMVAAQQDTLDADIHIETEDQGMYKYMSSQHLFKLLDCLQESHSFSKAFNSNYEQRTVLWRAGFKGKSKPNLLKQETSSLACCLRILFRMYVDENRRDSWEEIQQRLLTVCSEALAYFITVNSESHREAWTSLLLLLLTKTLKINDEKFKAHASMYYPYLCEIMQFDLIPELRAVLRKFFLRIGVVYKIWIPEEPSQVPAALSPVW
# UniProt Q9Y3Y2: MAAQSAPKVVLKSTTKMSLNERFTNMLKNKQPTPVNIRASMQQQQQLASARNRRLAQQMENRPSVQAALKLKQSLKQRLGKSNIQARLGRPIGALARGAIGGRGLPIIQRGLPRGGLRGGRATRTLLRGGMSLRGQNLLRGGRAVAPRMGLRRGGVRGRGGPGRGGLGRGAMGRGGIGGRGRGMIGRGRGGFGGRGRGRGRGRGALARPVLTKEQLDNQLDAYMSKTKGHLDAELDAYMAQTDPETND
# UniProt Q9Y5Y5: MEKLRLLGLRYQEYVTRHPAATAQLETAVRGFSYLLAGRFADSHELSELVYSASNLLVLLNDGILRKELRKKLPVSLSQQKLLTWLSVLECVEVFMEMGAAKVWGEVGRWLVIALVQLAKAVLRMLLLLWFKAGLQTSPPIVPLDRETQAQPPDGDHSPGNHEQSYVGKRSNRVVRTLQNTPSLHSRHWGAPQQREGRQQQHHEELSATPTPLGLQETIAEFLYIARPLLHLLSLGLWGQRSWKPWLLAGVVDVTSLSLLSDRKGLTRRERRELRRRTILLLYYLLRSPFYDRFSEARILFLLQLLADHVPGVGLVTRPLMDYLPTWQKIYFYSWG
# UniProt Q9Y6H1: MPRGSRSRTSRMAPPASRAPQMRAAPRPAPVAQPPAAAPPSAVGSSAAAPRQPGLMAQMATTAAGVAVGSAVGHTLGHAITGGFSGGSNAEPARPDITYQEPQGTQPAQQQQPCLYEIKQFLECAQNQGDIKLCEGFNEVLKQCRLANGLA
# UniProt Q9Y4L5, whole entry: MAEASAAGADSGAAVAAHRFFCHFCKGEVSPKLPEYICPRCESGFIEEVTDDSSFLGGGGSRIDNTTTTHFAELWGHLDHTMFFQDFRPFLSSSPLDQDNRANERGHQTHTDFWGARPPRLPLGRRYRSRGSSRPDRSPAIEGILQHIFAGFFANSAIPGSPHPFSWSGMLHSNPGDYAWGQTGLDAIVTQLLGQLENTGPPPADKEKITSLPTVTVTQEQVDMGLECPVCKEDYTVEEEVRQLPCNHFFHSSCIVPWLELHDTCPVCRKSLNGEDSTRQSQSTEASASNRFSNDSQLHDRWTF
# UniProt Q9Y2V7: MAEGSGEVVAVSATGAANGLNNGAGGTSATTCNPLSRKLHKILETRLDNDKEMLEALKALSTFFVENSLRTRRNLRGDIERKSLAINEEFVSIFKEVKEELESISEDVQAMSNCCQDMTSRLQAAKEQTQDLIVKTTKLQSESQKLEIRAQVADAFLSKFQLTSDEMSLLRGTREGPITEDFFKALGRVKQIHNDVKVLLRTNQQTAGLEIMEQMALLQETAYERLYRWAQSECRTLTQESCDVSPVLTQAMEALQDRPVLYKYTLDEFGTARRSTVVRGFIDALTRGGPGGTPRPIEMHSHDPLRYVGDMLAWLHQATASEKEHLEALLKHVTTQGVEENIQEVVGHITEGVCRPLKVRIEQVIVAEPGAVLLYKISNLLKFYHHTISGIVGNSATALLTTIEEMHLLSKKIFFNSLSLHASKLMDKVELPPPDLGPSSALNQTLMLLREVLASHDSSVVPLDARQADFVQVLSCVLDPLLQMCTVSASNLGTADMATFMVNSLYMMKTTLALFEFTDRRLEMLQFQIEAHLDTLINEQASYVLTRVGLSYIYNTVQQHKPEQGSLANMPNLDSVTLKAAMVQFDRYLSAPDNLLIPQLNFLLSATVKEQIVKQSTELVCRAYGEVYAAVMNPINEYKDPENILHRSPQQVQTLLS
# UniProt Q9Y3B2, whole entry: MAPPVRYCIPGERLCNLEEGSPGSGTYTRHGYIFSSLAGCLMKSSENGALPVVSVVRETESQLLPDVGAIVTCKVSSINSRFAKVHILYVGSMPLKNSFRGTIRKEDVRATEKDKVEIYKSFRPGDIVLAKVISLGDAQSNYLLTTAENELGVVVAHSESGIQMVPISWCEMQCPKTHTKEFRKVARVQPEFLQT
# UniProt Q9Y608: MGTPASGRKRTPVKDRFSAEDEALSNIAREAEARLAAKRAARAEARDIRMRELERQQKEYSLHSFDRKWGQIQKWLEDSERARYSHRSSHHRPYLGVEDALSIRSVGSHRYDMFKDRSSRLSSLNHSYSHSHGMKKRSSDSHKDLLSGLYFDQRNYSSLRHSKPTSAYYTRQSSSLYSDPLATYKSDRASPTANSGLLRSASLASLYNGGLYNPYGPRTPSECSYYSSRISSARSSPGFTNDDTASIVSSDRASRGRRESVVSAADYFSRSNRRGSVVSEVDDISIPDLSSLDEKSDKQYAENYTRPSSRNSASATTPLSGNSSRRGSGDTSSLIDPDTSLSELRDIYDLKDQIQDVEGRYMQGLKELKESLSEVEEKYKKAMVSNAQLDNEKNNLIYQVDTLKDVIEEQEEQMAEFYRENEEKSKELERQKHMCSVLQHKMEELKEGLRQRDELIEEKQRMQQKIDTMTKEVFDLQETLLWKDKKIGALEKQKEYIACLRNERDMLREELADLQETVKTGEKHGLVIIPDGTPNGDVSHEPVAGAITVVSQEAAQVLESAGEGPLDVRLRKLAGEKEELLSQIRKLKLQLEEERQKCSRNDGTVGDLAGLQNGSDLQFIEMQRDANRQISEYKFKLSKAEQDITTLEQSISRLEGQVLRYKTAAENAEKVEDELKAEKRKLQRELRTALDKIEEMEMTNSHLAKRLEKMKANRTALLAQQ
# UniProt Q9Y639: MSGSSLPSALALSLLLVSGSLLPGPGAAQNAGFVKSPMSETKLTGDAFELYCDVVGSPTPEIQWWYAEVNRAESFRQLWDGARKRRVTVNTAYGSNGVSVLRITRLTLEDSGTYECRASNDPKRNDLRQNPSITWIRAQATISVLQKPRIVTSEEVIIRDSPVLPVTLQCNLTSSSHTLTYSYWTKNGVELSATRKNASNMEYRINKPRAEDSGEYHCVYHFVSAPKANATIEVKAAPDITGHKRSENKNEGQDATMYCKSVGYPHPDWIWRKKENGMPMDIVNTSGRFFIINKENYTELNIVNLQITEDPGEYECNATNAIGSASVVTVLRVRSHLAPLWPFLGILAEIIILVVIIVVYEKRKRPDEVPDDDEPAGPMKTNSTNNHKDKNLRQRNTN
# ± gives the standard deviation of the averaged measurements. This is a selection; strong and weak results do not stand in their true shares. Small differences around the control level are noise.
# Compound: Nc1ncnc2c1ncn2[C@@H]1O[C@H](COP(=O)(O)OP(=O)(O)OP(=O)(O)O)[C@@H](O)[C@H]1O [adenosine triphosphate]
# Assay: NP40-soluble protein abundance relative to vehicle (solubility fold change) (ratio); higher = more soluble protein in presence of ATP
# How it was run: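 In three independent experiments, Jurkat crude lysate made by Dounce homogenisation was treated for 10 min at room temperature and then 3 min at 37 °C with eight concentrations ranging from 0.1 to 10 mM. It was then solubilised with 0.8% NP40 plus benzonase for 60 min at 4 °C and ultracentrifuged. The supernatant was TMT-labelled for LC-MS/MS, and each value is the fold change against the detergent-processed vehicle for the same replicate, using vsn-normalised intensities.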
target,measurement,setting,value
TLN2 (UniProt Q9Y4G6),NP40-soluble protein abundance,concentration: 0.1mM,1.01 ± 0.057
same,NP40-soluble protein abundance,concentration: 0.5mM,0.994 ± 0.06
HYOU1 (UniProt Q9Y4L1),NP40-soluble protein abundance,concentration: 0.1mM,0.978 ± 0.028
same,NP40-soluble protein abundance,concentration: 0.5mM,0.996 ± 0.05
TMED5 (UniProt Q9Y3A6),NP40-soluble protein abundance,concentration: 0.1mM,1.02 ± 0.086
same,NP40-soluble protein abundance,concentration: 0.5mM,1.04 ± 0.094
CNPY2 (UniProt Q9Y2B0),NP40-soluble protein abundance,concentration: 0.1mM,0.946 ± 0.06
same,NP40-soluble protein abundance,concentration: 0.5mM,0.913 ± 0.07
NUBP2 (UniProt Q9Y5Y2),NP40-soluble protein abundance,concentration: 0.1mM,1.05 ± 0.037
same,NP40-soluble protein abundance,concentration: 0.5mM,1.04 ± 0.056
ARFGEF2 (UniProt Q9Y6D5),NP40-soluble protein abundance,concentration: 0.1mM,1.03 ± 0.024
same,NP40-soluble protein abundance,concentration: 0.5mM,1.03 ± 0.015
UniProt Q9Y2A7 and related entries,NP40-soluble protein abundance,concentration: 0.1mM,1.01 ± 0.14
same,NP40-soluble protein abundance,concentration: 0.5mM,1 ± 0.14
UniProt Q9Y3Y2 and related entries,NP40-soluble protein abundance,concentration: 0.1mM,0.962 ± 0.1
same,NP40-soluble protein abundance,concentration: 0.5mM,0.98 ± 0.043
YBX2 (UniProt Q9Y2T7),NP40-soluble protein abundance,concentration: 0.1mM,1.14 ± 0.23
same,NP40-soluble protein abundance,concentration: 0.5mM,1.05 ± 0.055
UniProt Q9Y5Y5 and related entries,NP40-soluble protein abundance,concentration: 0.1mM,1 ± 0.09
same,NP40-soluble protein abundance,concentration: 0.5mM,0.835 ± 0.064
CHCHD2 (UniProt Q9Y6H1),NP40-soluble protein abundance,concentration: 0.1mM,1.05 ± 0.17
same,NP40-soluble protein abundance,concentration: 0.5mM,0.977 ± 0.12
RNF115 (UniProt Q9Y4L5),NP40-soluble protein abundance,concentration: 0.1mM,0.997 ± 0.12
same,NP40-soluble protein abundance,concentration: 0.5mM,0.953 ± 0.038
UniProt Q9Y3L5,NP40-soluble protein abundance,concentration: 0.1mM,1.06 ± 0.091
same,NP40-soluble protein abundance,concentration: 0.5mM,1.11 ± 0.12
UniProt Q9Y3B7 and related entries,NP40-soluble protein abundance,concentration: 0.1mM,0.889 ± 0.23
same,NP40-soluble protein abundance,concentration: 0.5mM,0.87 ± 0.18
UniProt Q9Y2Q9 and related entries,NP40-soluble protein abundance,concentration: 0.1mM,0.907 ± 0.19
same,NP40-soluble protein abundance,concentration: 0.5mM,0.851 ± 0.15
MRPS18B (UniProt Q9Y676),NP40-soluble protein abundance,concentration: 0.1mM,0.885 ± 0.17
same,NP40-soluble protein abundance,concentration: 0.5mM,0.923 ± 0.18
MRPS16 (UniProt Q9Y3D3),NP40-soluble protein abundance,concentration: 0.1mM,0.874 ± 0.084
same,NP40-soluble protein abundance,concentration: 0.5mM,0.905 ± 0.11
UniProt Q9Y2V7 and related entries,NP40-soluble protein abundance,concentration: 0.1mM,1.01 ± 0.019
same,NP40-soluble protein abundance,concentration: 0.5mM,0.993 ± 0.016
EXOSC1 (UniProt Q9Y3B2),NP40-soluble protein abundance,concentration: 0.1mM,1.02 ± 0.073
same,NP40-soluble protein abundance,concentration: 0.5mM,1.05 ± 0.034
UniProt Q9Y608 and related entries,NP40-soluble protein abundance,concentration: 0.1mM,0.948 ± 0.044
same,NP40-soluble protein abundance,concentration: 0.5mM,0.981 ± 0.024
UniProt Q9Y639 and related entries,NP40-soluble protein abundance,concentration: 0.1mM,0.894 ± 0.12
same,NP40-soluble protein abundance,concentration: 0.5mM,0.833 ± 0.13
same,NP40-soluble protein abundance,concentration: 1mM,0.919 ± 0.11
same,NP40-soluble protein abundance,concentration: 2mM,0.888 ± 0.06
same,NP40-soluble protein abundance,concentration: 4mM,0.938 ± 0.1
same,NP40-soluble protein abundance,concentration: 6mM,0.926 ± 0.084
same,NP40-soluble protein abundance,concentration: 8mM,0.896 ± 0.061
same,NP40-soluble protein abundance,concentration: 10mM,0.851 ± 0.11

# As a short view, some entries already given:
target,measurement,setting,value
UniProt Q9Y639 and related entries,NP40-soluble protein abundance,concentration: 0.1mM,0.894 ± 0.12
same,NP40-soluble protein abundance,concentration: 0.5mM,0.833 ± 0.13
